Experimental data as given in patent US20160009819A1.
Results are given in words; binding and its absence hold for the method and conditions named. A result given as binding can be weak or reduced; the word gives no strength.

What was measured:
[1] = biological target: rabbit EL with C2 tag (rabbit); experiment: sandwich ELISA: antibody captured on anti-mouse IgG-Fc plate, EL heparin extract added, detected by anti-C2-tag antibody
[2] = biological target: cynomolgus monkey EL with C2 tag (cynomolgus monkey); experiment: as above
[3] = biological target: rabbit EL with C2 tag (rabbit); experiment: ELISA: antibody captured on anti-mouse IgG-Fc plate, C2-tagged EL heparin extract added, anti-C2-tag detection, A450 (Example 8)
[4] = biological target: cynomolgus monkey EL with C2 tag (cynomolgus monkey); experiment: as above

Binder	binding [1]	binding [2]	binding [3]	binding [4]
55A1 antibody (antibody, V domains shown) VH: QIHLVQSGPELKKPGETVKISCKASGYTFTNYGMNWVKQAPGKGLKWMGWINTYSGVPTYAGDFKGRFAFSLETSASTAYLQINNLKNEDTATYFCARRGYYGRRYFDVWGTGTTVTVSS VL: DIVLTQSPASLAVSLGQRATISCKASQSVDYDVDSYMHWYQQKPGQPPKLLIYAASNLASGIPARFSGGGSGTDFTLNIHPVEEEDVATYYCQQTIEDPPTFGGGTKLEIK	no binding	binds	no binding (tested: about 300 ng/mL)	binds
14A1 antibody (antibody, V domains shown) VH: QIQLVQSGPELKKPGETVKISCKASGYTFTNYGMNWVKQAPGKGLKWMGWINTYSGVPTYADDFKGRFAFSLETSASTAYLQINNFKNEDTATYFCARFSYYGRHYFDYWGQGTALTASS VL: DIVLTQSPASLAVSLGQRATISCKASQSVDYDGDSYMNWYQQKPGQPPKLLIYAASNLKSGIPARFSGSGSGTDFTLNIHPVEEEDAATYYCQQTTDDPPWTFGGGTKLEIK	no binding	binds	no binding (tested: about 300 ng/mL)	binds
53A11 antibody (antibody, V domains shown) VH: EVQLQQSGPELLKPGASVKISCKASGYTFTDYTMHWVKQSHGKSLEWIGGINPYYGGTTYNEKFKDKATLTVDKSSSTAYMELRSLTSEDSAVYYCAKGDYYGGSYNYWGQGTTLTVSS VL: DIVLTQSLATLSVTPGDSVSLSCRASQDISNSLHWYQQKSHESPRLLIKYASQSISGIPSRFSGSGSGTDFTLSINSVETEDFGMYFCQQSNSWPYTFGGGTKLEIK	no binding	binds	no binding (tested: about 300 ng/mL)	binds
13B3 antibody (antibody, V domains shown) VH: EVQLQQSGPELLKPGASVKISCKASGYTFTEYTMHWVKQSHGKSLEWIGSINPYYGGTSYNEKFKDKATLTVDKSSNTAYMEFRSLTSEDCAVYYCARYGNYVGYFDYWGQGTTLTVSS VL: ENVLTQSPAIMSASLGEKVTMSCRASSSVHYMYWYQQKSDASPKLWIYYTSNLAPGVPDRFSGSGSGNSYSLTISSMEGEDAATYYCQQFTSSPYTFGGGTKLEIK	binds	binds	binds	binds
23H8 antibody (antibody, V domains shown) VH: EVQLQQSGPELLKPGASVKISCKASGYTFTDNTIHWVKQSHGKSLEWIGHINPYYGGTNNNEKFKDKATLTVDKSSSTAYMELRSLTSEDSAIYYCARKGIYYSSPFDYWGQGTTLTVSS VL: DIQMTQTTSSLSASLGDRVTISCRASQDINNYLNWYQQKPDGTVKLLISYTSKLHSGVPSRFSGSGSGTDYSLTISNLEREDFATYFCQQGNTLPFTFGSGTNLEIK	binds	binds	binds	binds
16B3 antibody (antibody, V domains shown) VH: DVKLVESGGGLVQPGGSLKLSCTASGFTFSGYTMSWVRQTPEKRLELVAEISFARDRAFYPDTVKGRFTISRDNAKNTLYLQMSSLKSEDTAMYYCTRLGGRNHDYWYFDVWGTGTTVTVSS VL: DIVLTQSPTSLAVSPGQRATISCRASESVEYYGTSLMQWYQQKPGQRPQLLIYAASNVESGVPARFSGSGSGTDFSLNIHPVEEDDIAVYFCQQSWKVPFTFGSGTKLEIK	binds	binds	binds	binds
14E1 antibody (antibody, V domains shown) VH: QVQLQQSGAELVKPGASVRLSCKASGYTFTKYTIHWVKQRSGQGLEWIGWFYPGSDSIKYNEKFKDKATLTADKSSRTVYMELSRLTSEDSAVYFCARHEEYTNSLAYWGQGTLVTVSA VL: DIQMTQTTSSLSASLGDRVTISCRASQDISNYLNWYQQQPDGTVKLLIYYTSRLHSGVPSRFSGSGSGTDYSLTISNLEQEDIATYFCQQGYTLPWTFGGGTNLEIK	binds	binds	binds	binds
7D4 antibody (antibody, V domains shown) VH: QIQLVQSGPELKKPGETVKISCKASGYTFTNYGMNWVKQAPGKDLKWMGWINTYSGVPTYADDFKGRFAFSLETSASTAYLQINNLKNEDTATYFCARFSYYGRHYFDYWGQGTTLTVSS VL: DIVLTQSPASLAVSLGQRATISCKASQSVDYDGDSYMNWYQQKPGQPPQLLIYAASNLGSGIPARFSGSGSGTDFTLNIHPVEEEDAATYYCHQSTDDPPWTFGGGTKLEIK	no binding	binds	no binding (tested: about 300 ng/mL)	binds
19E7 antibody (antibody, V domains shown) VH: QVQLQQPGSVLVRPGASVKLSCKASGYTFTTYWMHWVKQRPGQGLEWIGEIHPYSGNNNNNEKFKGKATLTVDTSSSTAYVDLSRLTSEDSAVYYCARYDSNYVFAYWGQGTLVTVSA VL: QIVLTQSPAIMSASPGEGVTITCSASSSVSYMHWFQQKPGTSPKLWIYSTSNLASGVPARFSGSGSGTSYSLTISRMEAEDAATYYCQQRDSYLTFGSGTKLEVK	binds	binds	binds	binds
